Source: PubChem BioAssay AID485314 (National Center for Advancing Translational Sciences (NCATS), 2010)
About 4,500 (1.3%) of roughly 340,000 compounds were called active. Inconclusive results, whose numbers are uncertain, are shown with a selection of clear calls. Calls come from the whole dose curve; as a rule, active = well fitted inhibition curve with a large enough effect; inconclusive = small, poorly fitted or top-dose-only effect, or another doubt; inactive = no such curve, though single readings can be large or run the other way. Potencies beside an inconclusive call are fits to weak or partial responses and may not hold up.

target: DNA polymerase beta (Homo sapiens) (UniProt P06746); experiment: qHTS Assay for Inhibitors of DNA Polymerase Beta; conditions: Pol beta primer extension/strand displacement, fluorescence kinetic; series mostly up to 114 µM
Outline: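 Homogeneous kinetic assay of primer extension and strand displacement by 10 nM Pol beta, preincubated 15 min at room temperature with compound before 50 nM substrate (final) was added. Read at 0 and 10 min; four-parameter Hill fit.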
Potency is the fitted concentration of half-maximal effect.

Row | Compound | Potency
1 | Cc1cc2c(cc1C)NC(CC(=O)Nc1ccccc1SC(F)(F)F)C(=O)N2 (configuration not stated) | inactive
2 | COc1ccc(CNC(=O)c2cc3c(s2)-c2c(C)cccc2OC3)cc1 | active: 14.1 µM
3 | CC(=O)c1ccc(OC(=O)c2cc3ccccc3oc2=O)cc1 | inconclusive: 100 µM [inhibitor, single point]
4 | O=C(Nc1ccc(S(=O)(=O)Nc2nccs2)cc1)c1cccc(N2C(=O)c3ccccc3C2=O)c1 | inactive
5 | O=C(Cn1c(=O)oc2cc(S(=O)(=O)N3CCCC3)ccc21)NC1CCCc2ccccc21 (configuration not stated) | inconclusive: 56.2 µM [inhibitor, single point]
6 | CCOC(=O)C1CCCCN1Cc1cccc(OCc2ccccc2)c1 (configuration not stated) | inconclusive: 1 µM [inhibitor, full curve, poor fit]
7 | Cc1ccc(NC(=O)Cn2c(=O)n(CCC(=O)NCc3ccc4c(c3)OCO4)c(=O)c3sccc32)c(C)c1 | inconclusive: 89.1 µM [inhibitor, single point]
8 | CCOc1ccc(S(=O)(=O)N(C)c2ccc(OCC(=O)NCc3ccc(C(=O)OC)cc3)cc2)cc1 | inconclusive: 89.1 µM [inhibitor, single point]
9 | CCOC(=O)c1c(C)[nH]c(C(=O)OC/C(O)=C(\C#N)c2nc3ccccc3[nH]2)c1C | inconclusive: 79.4 µM [inhibitor, single point]
10 | CCN(CC)CCCNC(=O)c1cc2c(-c3ccc(Cl)cc3)nn(C)c2s1 | inconclusive: 20 µM [inhibitor, full curve]
11 | Cc1ccc(S(=O)(=O)c2cc3c(=O)n4ccccc4nc3n(Cc3ccco3)c2=N)cc1 | inconclusive: 89.1 µM [inhibitor, single point]
12 | Cc1ccc(NC(=O)CC(=O)Nc2ccc(C)cc2)cc1 | inconclusive: 35.5 µM [inhibitor, partial curve]
13 | COc1cc(C(=S)NCc2ccccc2)cc(Br)c1O | inconclusive: 89.1 µM [inhibitor, single point]
14 | C/C(=N\Nc1ccc(Cl)c(C(=O)O)c1)c1ccc2c(c1)OCO2 | inconclusive: 70.8 µM [inhibitor, single point]
15 | Cc1cc(N2CCN(C)CC2)nc2ccc(NC(=O)Nc3cccc(Cl)c3)cc12 | inactive
16 | Cc1ccsc1CN(C(=O)c1oc2ccc(Br)cc2c1C)C1CCS(=O)(=O)C1 (configuration not stated) | inconclusive: 39.8 µM [inhibitor, single point]
17 | CCOc1ccc(C2c3c(oc4ccc(C)cc4c3=O)C(=O)N2CCCN2CCOCC2)cc1 (configuration not stated) | inconclusive: 89.1 µM [inhibitor, single point]
18 | O=C(O)c1ccc(N2C(=O)CC(N3CCN(c4ccc(Cl)cc4)CC3)C2=O)cc1 (configuration not stated) | inactive
19 | N/C(=N\OC(=O)c1ccc2c(c1)OCO2)c1cccc([N+](=O)[O-])c1 | inconclusive: 20 µM [inhibitor, full curve, poor fit]
20 | Cc1cccc(NC(=O)CN2C(=O)N/C(=C\c3ccccc3OCc3ccc(C(=O)O)cc3)C2=O)c1 | active: 50.1 µM
21 | Cc1ccc(/C=C\c2nccc3c2[nH]c2ccccc23)cc1 | inconclusive: 0.141 µM [inhibitor, full curve, poor fit]
22 | CCOC(=O)COn1c(-c2cccc(Cl)c2)nc2ccc([N+](=O)[O-])cc21 | inconclusive: 3.16 µM [inhibitor, single point]
23 | O=C(COc1ccc2ccc(=O)oc2c1)Nc1ccc2c(c1)OCCO2 | inconclusive: 44.7 µM [inhibitor, full curve, poor fit]

Row | Compound | Potency
24 | O=C(COC(=O)c1ccc(S(=O)(=O)NCc2ccco2)cc1)c1ccccc1 | inconclusive: 39.8 µM [inhibitor, full curve, poor fit]
25 | O=C(Nc1ccc2[nH]ncc2c1)C1CCC1 | inconclusive: 39.8 µM [inhibitor, single point]
26 | CCOc1ccc(S(=O)(=O)NCc2ccco2)c2ccccc12 | inconclusive: 89.1 µM [inhibitor, single point]
27 | O=C(CSc1ccccc1)Nc1ccc(C(=O)Nc2ccc(O)cc2)cc1 | active: 79.4 µM
28 | CC(C)COc1ccc(C(=O)N2CCCCC2CCN2CCCCC2)cc1 (configuration not stated) | inconclusive: 79.4 µM [inhibitor, single point]
29 | Oc1ccc(Nc2nc(NCC3CCCO3)c3ccccc3n2)cc1 (configuration not stated) | inconclusive: 79.4 µM [inhibitor, single point]
30 | CCOC(=O)CNC(=O)C1c2ccccc2Oc2ccccc21 | inconclusive: 28.2 µM [inhibitor, partial curve]
31 | C#CCOCCOCCOCCNc1nc(N2CCN(C(=O)[C@H](Cc3cc4ccccc4[nH]3)n3cc([C@@H](N)C(C)CC)nn3)CC2)nc(N2CCN(C(=O)[C@H](Cc3cc4ccccc4[nH]3)n3cc([C@@H](N)CC(C)C)nn3)CC2)n1 (some centres not stated) | inconclusive: 25.1 µM [inhibitor, full curve]
32 | CN1C(=O)c2cccc3c(S(=O)(=O)NCc4ccco4)ccc1c23 | inconclusive: 79.4 µM [inhibitor, single point]
33 | Cc1[nH]n(-c2ccccc2)c(=O)c1N=Nc1ccc2c(c1)OCCO2 | inconclusive: 100 µM [inhibitor, single point]
34 | COc1cccc2c(C)nc(Nc3nc(CSc4nnc(C)s4)cc(=O)[nH]3)nc12 | inactive
35 | CCN(CC)S(=O)(=O)c1ccc(N2CCCC2)c(NC(=O)c2ccncc2)c1 | inconclusive: 89.1 µM [inhibitor, single point]
36 | COc1ccccc1NC(=O)c1ccc(COc2ccccc2Br)o1 | inconclusive: 31.6 µM [inhibitor, single point]
37 | Cc1c(NC(=O)C(C)OC(=O)c2c3c(nc4ccccc24)CCC3)c(=O)n(-c2ccccc2)n1C (configuration not stated) | inconclusive: 44.7 µM [inhibitor, partial curve]
38 | COc1ccc(CCC(=O)NCc2nc3cccnc3n2Cc2ccc(F)cc2)cc1 | inactive
39 | CC(NC(=S)Nc1ccc(OC(F)F)cc1OC(F)F)C(C)(C)C (configuration not stated) | inconclusive: 0.126 µM [inhibitor, full curve, poor fit]
40 | COc1ccc(OCc2cc(C(=O)O)c(C)o2)cc1 | inconclusive: 15.8 µM [inhibitor, full curve]
41 | O=C(CCS(=O)(=O)c1ccc(Br)cc1)Nc1ccc2c(c1)OCO2 | inconclusive: 89.1 µM [inhibitor, single point]
42 | COc1ccccc1CNS(=O)(=O)c1ccc2[nH]cc(C(=O)O)c(=O)c2c1 | active: 28.2 µM
43 | O=C(N/N=C/c1ccoc1)c1ccccc1F | active: 22.4 µM
44 | Cc1ccc(-c2cc(-c3ccco3)c(C#N)c(=O)[nH]2)cc1 | active: 11.2 µM
45 | O=C(NCCc1ccccc1)C1CCN(Cc2cc3ccccc3n2Cc2cccc(Cl)c2)CC1 | inconclusive: 100 µM [inhibitor, single point]
46 | O=C(Nc1sccc1C(=O)NCc1ccco1)c1cccnc1 | inconclusive: 50.1 µM [inhibitor, partial curve]

An excerpt of these results, with each value named:
CN1C(=O)c2cccc3c(S(=O)(=O)NCc4ccco4)ccc1c23
  Potency: inconclusive: 79.4 µM [inhibitor, single point]
Cc1[nH]n(-c2ccccc2)c(=O)c1N=Nc1ccc2c(c1)OCCO2
  Potency: inconclusive: 100 µM [inhibitor, single point]

Reformatted: entries from further up.
O=C(N/N=C/c1ccoc1)c1ccccc1F
  Potency: active: 22.4 µM
Cc1ccc(-c2cc(-c3ccco3)c(C#N)c(=O)[nH]2)cc1
  Potency: active: 11.2 µM
O=C(NCCc1ccccc1)C1CCN(Cc2cc3ccccc3n2Cc2cccc(Cl)c2)CC1
  Potency: inconclusive: 100 µM [inhibitor, single point]
O=C(Nc1sccc1C(=O)NCc1ccco1)c1cccnc1
  Potency: inconclusive: 50.1 µM [inhibitor, partial curve]

(further entries)

Row | Compound | Potency
47 | Cc1cc(-c2ccccc2)[nH]c(=O)c1C#N | inactive
48 | C/C(N)=C(/C#N)C(=O)CSc1nnc(NC(C)C)s1 | inactive
49 | COc1ccc(-c2c[n+]3c4n2CCCCC4=C(c2ccccc2)C3)cc1 | active: 11.2 µM
50 | O=C(N/N=C/c1ccc(O)cc1)c1cc(-c2ccc3c(c2)OCO3)n[nH]1 | inconclusive: 10 µM [inhibitor, partial curve]
51 | Cc1ccc(-c2nn3c(-c4ccco4)nnc3c3ccccc23)cc1S(=O)(=O)N1CCOCC1 | inconclusive: 28.2 µM [inhibitor, single point]
52 | O=C(/C=C/c1ccccc1)NCc1ccco1 | inactive
53 | CCS(=O)(=O)c1ccc(NC(=O)c2ccccc2Cl)c(O)c1 | inconclusive: 17.8 µM [inhibitor, partial curve, poor fit]
54 | O=C(O)c1cccc(COc2ccc3c(c2)CCC3)c1 | active: 22.4 µM
55 | O=C(NCc1ccccc1)c1ccc2c(=O)[nH]c3c(C(=O)NCC4CCCO4)sc(=S)n3c2c1 (configuration not stated) | inconclusive: 35.5 µM [inhibitor, full curve]
56 | Cn1nnc2cc(C(=O)NCc3ccc4c(c3)OCO4)ccc21 | inconclusive: 89.1 µM [inhibitor, single point]
57 | CN(Cc1ccccc1)S(=O)(=O)c1ccc2[nH]c3c(c2c1)CCCCC3 | inactive
58 | CCn1c(N)c(C(N)=O)sc1=S | inconclusive: 79.4 µM [inhibitor, single point]
59 | Cc1ccc(S(=O)(=O)N/N=C\c2ccc(C)o2)cc1 | active: 39.8 µM
60 | COc1ccc(-n2nc(C(=O)Nc3ccc(Cl)cn3)c3c4ccccc4n(C)c3c2=O)cc1 | inconclusive: 39.8 µM [inhibitor, single point]
61 | CCCOc1ccc(CNC(=O)Cc2cccs2)cc1 | inconclusive: 89.1 µM [inhibitor, single point]
62 | COc1ccc(OC)c(CNC(=O)c2cnc3c(C)cccn3c2=O)c1 | inactive
63 | CC(C)CC(=O)Nc1cc(-c2ccccc2F)nn1-c1ccccc1 | inconclusive: 89.1 µM [inhibitor, single point]
64 | COc1cc(/C=N/Nc2ccccn2)cc(OC)c1O | inconclusive: 39.8 µM [inhibitor, partial curve]
65 | Cc1ccc(CNC(=O)c2cnn(-c3cccc(C)c3)c2C2CCN(C(=O)OC(C)(C)C)CC2)cc1 | inactive
66 | CCn1cnc2c(=O)oc3ccc(S(=O)(=O)Nc4ccc(OC)cc4)cc3c21 | inconclusive: 3.98 µM [inhibitor, single point]
67 | N#Cc1ccc(-c2ccco2)nc1SCC(=O)c1ccc(Cl)cc1 | inconclusive: 11.2 µM [inhibitor, full curve, poor fit]
